Source: PubChem BioAssay AID504764 (Drosophila RNAi Screening Center, 2011)
Purpose: 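Genes whose knock-down alters Notch-dependent transcription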 (primary screen). Cells: Drosophila Kc167 cells. Reagents: long dsRNA against Drosophila genes. Timing: about 5 days (4 days dsRNA, then 24 h after transfection). Challenge: transfection of constitutively active membrane-tethered Notch lacking the extracellular domain, read 24 h later. Measured: 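Light from a Notch-responsive E(spl)m3 luciferase reporter under active Notch, with control-promoter and no-Notch reporter wells to normalise; raw counts from paired wells a and b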. Direction: induced reporter light, run 1, well a and induced reporter light, run 1, well b: higher = more light from the Notch target reporter with active Notch; control promoter light, run 1, well a and control promoter light, run 1, well b: higher = more light from the viral control promoter (cell number, transfection, viability); uninduced reporter light, run 1, well a: higher = more light from the Notch target reporter without active Notch. Call rule: 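Hit if the duplicate-averaged log2 ratio of induced to control-promoter light gives a plate-wise z beyond ±2, or induced to uninduced beyond ±1.8; weak-control or discordant-duplicate wells dropped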. Meaning of the calls: active = modifier hit (raised or lowered Notch signal); inactive = not a hit.
In all, the deposit lists about 22,000 reagents; below is an unselected part of those with a known target gene and a result. Of all reagents, 403 (1.9%) are marked active. 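Unnormalised raw counts per well; ratio z-scores behind the hit calls and whether each hit raises or lowers signal are not deposited.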 Reagent sequences are not shown. The record does not give: the amount of reagent.

Target gene	induced reporter light, run 1, well a	induced reporter light, run 1, well b	control promoter light, run 1, well a	control promoter light, run 1, well b	uninduced reporter light, run 1, well a	Outcome
tra	1.69e5	1.76e5	2.14e5	2.17e5	11715	inactive
SPARC	1.60e5	1.36e5	1.98e5	1.74e5	12465	inactive
Ugt303B1	1.79e5	1.82e5	1.82e5	1.75e5	13710	inactive
Kdm3	51325	73815	55655	53890	3715	inactive
CG11686	3.09e5	2.97e5	2.65e5	2.35e5	20300	inactive
CG10164	2.05e5	1.89e5	2.70e5	3.00e5	11220	inactive
Non3	1.74e5	1.78e5	2.36e5	2.40e5	17375	inactive
CG7879	65220	67265	1.17e5	1.15e5	5980	inactive
Fum1	2.42e5	2.55e5	2.64e5	2.84e5	16415	inactive
CG34033	81465	1.00e5	1.06e5	1.15e5	5800	inactive
CG9121	50030	36305	42350	32870	2388	inactive
CG13481	2.12e5	1.86e5	2.93e5	2.54e5	9080	inactive
mtg	40415	45975	37145	43800	3105	inactive
CG12486 (retired record)	1.68e5	1.75e5	1.91e5	1.95e5	7535	inactive
CG8414	62535	69850	79820	72435	5005	inactive
CG14384	2.82e5	2.91e5	2.33e5	2.59e5	22075	inactive
CG5001	1.07e5	1.32e5	1.14e5	71800	9540	inactive
CG17784	1.42e5	1.30e5	1.41e5	1.64e5	10305	inactive
CG9503	86055	76095	84975	68245	12332	inactive
Shark	83565	69805	1.28e5	1.43e5	6730	inactive
